Measurements taken from PubChem BioAssay AID248 (DTP/NCI, 2004).
The list shows only some results of the screen, not a fair sample: it gathers tests that were run many times, whatever their T/C, doses with no T/C, and many T/C values between a quarter and a half above the control. Further doses and runs are listed elsewhere. T/C: endpoint of the treated group in % of that of the vehicle group. Some entries give survivors of the animals treated and no T/C: the source holds a T/C of zero for them, seemingly a mark for toxic or unscored doses. Some survivor counts are full or nearly so, which does not show that the dose was tolerated: survival well below the control is almost never listed, so the zero probably covers shortened survival too. Counts of survivors are from the toxicity check (mostly the fifth day) where no day follows; animals may have died later. Schedule codes are those of the source, taken here to give the interval after Q, in days (D) or hours (H), and the number of doses after X. Where survival is the endpoint, this PubChem deposit counts one and a half times the control or more as active, and values a quarter to a half above the control carry no call in these data; other NCI protocols may use other cut-offs. Some entries were tested several times; the values are given in rising order.

Tested on: L1210 leukemia ip in BDF1 mice, survival T/C
Assay: NCI In Vivo Anticancer Drug Screen. Data for tumor model L1210 Leukemia (intraperitoneal) in B6D2F1 (BDF1) mice
Conditions: T/C endpoint: mean survival time, higher T/C = longer survival
[1] = dose: 400.0 mg/kg/injection, schedule: Q04DX003 (ip), vehicle: saline
[2] = dose: 400.0 mg/kg/injection, schedule: Q04DX003 (ip), vehicle: Klucel (hydroxypropylcellulose) (HPC)

Cc1ccc(S(=O)(=O)OCC2OC(C)(C)OC3C(COS(=O)(=O)c4ccc(C)cc4)OC(C)(C)OC23)cc1 (stereo unspecified)
survivor count (dose: 50.0 mg/kg/injection, schedule: Q01DX001 (ip), vehicle: saline): 4 of 4 | survivor count (dose: 100.0 mg/kg/injection, schedule: Q01DX001 (ip), vehicle: saline): 4 of 4 | survivor count (dose: 200.0 mg/kg/injection, schedule: Q01DX001 (ip), vehicle: saline): 4 of 4 | survivor count (dose: 400.0 mg/kg/injection, schedule: Q01DX001 (ip), vehicle: saline): 4 of 4

CCO/C=C1/C(=O)N(C)c2c1c(=O)n(C)c(=O)n2C
survivor count (dose: 400.0 mg/kg/injection, schedule: Q04DX002 (ip), vehicle: Klucel (hydroxypropylcellulose) (HPC)): 3 of 3

Cc1ccc(C)c(CCO)c1
survivor count (dose: 400.0 mg/kg/injection, schedule: Q04DX003 (ip), vehicle: saline with Tween-80): 2 of 6

N#CSCc1ccccc1
survivor count (dose: 300.0 mg/kg/injection, schedule: Q01DX001 (ip), vehicle: carboxymethylcellulose (CMC)): 1 of 6

O=c1cc[nH]c2cc(Cl)ccc12
survivor count (dose: 200.0 mg/kg/injection, schedule: Q01DX009 (ip), vehicle: saline): 5 of 6

C[S+](C)CCCCCC[S+](C)C
survivor count (dose: 200.0 mg/kg/injection, schedule: Q04DX003 (ip), vehicle: saline): 2 of 6 | survivor count [1]: 0 of 6

O=C1C(c2ccccc2)=C(c2ccccc2)c2c1c(-c1ccccc1)c(-c1ccccc1)c(-c1ccccc1)c2-c1ccccc1
survivor count (dose: 50.0 mg/kg/injection, schedule: Q01DX001 (ip), vehicle: saline with Tween-80): 3 of 3 | survivor count (dose: 100.0 mg/kg/injection, schedule: Q01DX001 (ip), vehicle: saline with Tween-80): 3 of 3

O=S(=O)(F)c1cc(Cl)ccc1CBr
survivor count (dose: 100.0 mg/kg/injection, schedule: Q04DX002 (ip), vehicle: saline with Tween-80): 3 of 3

Br/C1=C/CCCCCC1
survivor count (dose: 300.0 mg/kg/injection, schedule: Q04DX003 (ip), vehicle: saline): 6 of 6

Cc1c(Cl)cccc1NC(=O)N(C)Cc1ccccc1
T/C (dose: 100.0 mg/kg/injection, schedule: Q01DX009 (ip), vehicle: saline with Tween-80): 97, 113, 118, 119 % of control | T/C (dose: 200.0 mg/kg/injection, schedule: Q01DX009 (ip), vehicle: saline with Tween-80): 106, 108, 118, 132 % of control | T/C (dose: 400.0 mg/kg/injection, schedule: Q01DX009 (ip), vehicle: saline with Tween-80): 100, 103, 118, 121 % of control

c1ccc(C(c2ccccc2)C2CCCCC2)cc1
survivor count [2]: 6 of 6

CCCCCCCCCCCCCCCCCC[N+]1(C)CCC1C (stereo unspecified)
survivor count (dose: 3.12 mg/kg/injection, schedule: Q04DX003 (ip), vehicle: saline): 6 of 6

O=C(/C=C\c1ccccc1)C(=O)/C=C/c1ccccc1
survivor count (dose: 100.0 mg/kg/injection, schedule: Q01DX009 (ip), vehicle: other): 6 of 6 | survivor count (dose: 200.0 mg/kg/injection, schedule: Q01DX001 (ip), vehicle: other): 6 of 6 | survivor count (dose: 400.0 mg/kg/injection, schedule: Q01DX001 (ip), vehicle: other): 6 of 6

Cc1c2oc3c(C)ccc(C(=O)OCCN4CCOCC4)c3nc-2c(C(=O)OCCN2CCOCC2)c(N)c1=O
survivor count (dose: 400.0 mg/kg/injection, schedule: Q04DX002 (ip), vehicle: saline): 0 of 3

CN1COC(OC(C)(C)C)C(C)(C)C1 (stereo unspecified)
survivor count (dose: 200.0 mg/kg/injection, schedule: Q01DX001 (ip), vehicle: saline sonified): 6 of 6

Clc1ccc(N2CCN(CCCN3CCN(c4cccc(Cl)c4)CC3)CC2)cc1
survivor count [2]: 2 of 6

CN(C)c1ccc2nc(C(=O)O)c(=O)n(C)c2c1
survivor count (dose: 400.0 mg/kg/injection, schedule: Q01DX001 (ip), vehicle: Klucel (hydroxypropylcellulose) (HPC)): 3 of 3

CNC(=O)O/N=C(/SC)C(C)C
survivor count (dose: 20.0 mg/kg/injection, schedule: Q01DX001 (ip), vehicle: saline): 1 of 6 | survivor count (dose: 40.0 mg/kg/injection, schedule: Q01DX001 (ip), vehicle: saline): 0 of 6 | survivor count (dose: 80.0 mg/kg/injection, schedule: Q01DX001 (ip), vehicle: saline): 0 of 6

O=C1NCCN1c1ccccn1
survivor count [1]: 0 of 6

CC(C)=CCC/C(C)=C\C=N\NC(N)=S
survivor count (dose: 400.0 mg/kg/injection, schedule: Q01DX001 (ip), vehicle: carboxymethylcellulose (CMC)): 0 of 4

O=C(O)CCC(=O)c1cccc([N+](=O)[O-])c1
survivor count (dose: 400.0 mg/kg/injection, schedule: Q01DX009 (ip), vehicle: Klucel (hydroxypropylcellulose) (HPC)): 6 of 6

CN(C)c1ccc(C#N)cc1
survivor count (dose: 12.5 mg/kg/injection, schedule: Q04DX002 (ip), vehicle: Klucel (hydroxypropylcellulose) (HPC)): 3 of 3 | survivor count (dose: 25.0 mg/kg/injection, schedule: Q04DX002 (ip), vehicle: Klucel (hydroxypropylcellulose) (HPC)): 0 of 3 | survivor count (dose: 50.0 mg/kg/injection, schedule: Q04DX002 (ip), vehicle: Klucel (hydroxypropylcellulose) (HPC)): 0 of 3 | survivor count (dose: 100.0 mg/kg/injection, schedule: Q04DX002 (ip), vehicle: Klucel (hydroxypropylcellulose) (HPC)): 0 of 3
